Measurements reported in PubChem BioAssay AID504648 (National Center for Advancing Translational Sciences (NCATS), 2011).
The campaign covered roughly 390,000 compounds. About 610 (0.16%) were called active. Inconclusive means that the source gave no clear call. Such entries were picked first, then a sample of the others. The call rests on the fitted dose curve; in most records, active means well fitted inhibition curve with a large enough effect; inconclusive means small, poorly fitted or top-dose-only effect, or effect the other way, or another doubt; inactive means no such curve, though single readings can be large or run the other way. A potency beside an inconclusive call is a rough fit, not a confirmed value.
On the % scale 0 is the no-effect control and ±100 the full control effect; potency means the concentration at half of the fitted maximal effect.

Test: Nrf2 qHTS screen for inhibitors: counterscreen for cytotoxicity
Details: A549 ARE-Fluc cells, CellTiter-Fluor viability, 18-24 h; activity change, negative = cytotoxicity: at 46 µM (top of the series)
How it was run: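 A549 ARE-Fluc cells in 5% FBS OPTI-MEM, 5000 cells/well, rested 2 h then exposed to compounds in concentration-response for 18-24 h at 37 °C. Viability by CellTiter-Fluor fluorescence (Ex 405/Em 525) after 30 min; luciferase luminescence (BugLite, 15 min, RT) read afterwards.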
With `c1ccc(-c2nnc3n2CCCC3)cc1` the “activity change, negative = cytotoxicity” value was inactive: 1.57%. With `COc1ccc(NC(=O)/C(C#N)=C\C=C\c2ccco2)cc1` the Potency was inconclusive: 23.1 µM [falling, single point]. With `COCCCNC(=O)C(=O)NCC(c1ccc2c(c1)OCO2)N1CCOCC1` (stereo unspecified) the “activity change, negative = cytotoxicity” value was inactive: 13.2%. For `COc1ccc(S(=O)(=O)Nc2ccc3c(c2)OCO3)cc1OC`, the “activity change, negative = cytotoxicity” value was inactive: 0.647%. With `COc1cccc(-c2ccc3c(N)c(C(=O)Nc4ccc(Cl)cc4F)sc3n2)c1` the Potency was inconclusive: 29.1 µM [activator, single point]. With `CCCCCCCCCCn1c2c(c(=N)c3c1CCC3)CCC2` the Potency was inconclusive: 18.4 µM [falling, single point]. In the case of `CC(C)c1nnc(NC(=O)c2nc(S(=O)(=O)Cc3ccc(F)cc3)ncc2Cl)s1`, the Potency is reported as inconclusive: 29.1 µM [falling, partial curve, poor fit]. With `Cc1cccc(C(=O)Nc2c(-c3ccc(F)cc3)nc3ccccn23)c1` the Potency was inconclusive: 20.6 µM [falling, single point]. For `Cc1cccc(CSc2nc3cccnc3n2Cc2ccc(C(=O)NCc3cccs3)cc2)c1`, the Potency was inconclusive: 23.1 µM [falling, single point]. With `CCCCCCC(=O)N(O)C1CC(=O)N(c2ccc(Cl)cc2)C1=O` (stereo unspecified) the “activity change, negative = cytotoxicity” value was inactive: -12.6%. For `Cc1ccc(NC(=S)NCCN(C2CCCCC2)C2CCCC2)cc1C`, the Potency was inconclusive: 32.6 µM [falling, partial curve, poor fit]. In the case of `COC(=O)[C@@]12OC[C@]34[C@H]([C@@H](O)[C@@H]1O)[C@@]1(C)C(=O)C(O[C@@H]5OC(CO)[C@@H](O)[C@@H](O)[C@@H]5O)=C[C@@H](C)[C@@H]1C[C@H]3OC(=O)[C@H](OC(=O)/C=C(\C)C(C)(C)OC(C)=O)[C@@H]24` (stereo partly specified), the Potency is reported as inconclusive: 13 µM [falling, partial curve]. For `N#Cc1ccc(-c2ccc3c(c2)OCO3)nc1SCC(=O)OCc1ccccc1`, the “activity change, negative = cytotoxicity” value was inactive: -1.01%. In the case of `C/C(=N\NC(=O)C(C)Oc1ccc([N+](=O)[O-])cc1)c1ccccn1` (stereo unspecified), the Potency is reported as inconclusive: 16.4 µM [falling, partial curve]. For `Cc1ccc(NS(=O)(=O)c2cc3c(cc2N(C)C)CCC(=O)N3)cc1C`, the “activity change, negative = cytotoxicity” value was inactive: 2.48%. With `COCCN1C=C2C(=O)C(C)(OC(=O)c3cccs3)C(=O)C=C2C=C1CCCC(=O)OC` (stereo unspecified) the Potency was inconclusive: 23.1 µM [falling, partial curve, poor fit]. With `Clc1ccc(C2=NNC(=NCc3ccc4c(c3)OCO4)SC2)cc1` the Potency was inconclusive: 29.1 µM [falling, single point]. For `Cn1c(C(=O)N2CCc3ccccc3C2)cc2c(=O)n3ccccc3nc21`, the Potency was inconclusive: 20.6 µM [activator, partial curve]. With `Cc1ccc(-n2nc(C)c3c(C)cc(=O)[nH]c32)cc1` the “activity change, negative = cytotoxicity” value was inactive: -1.74%. In the case of `c1ccc(Cn2nnc3c(N4CCc5ccccc5C4)ncnc32)cc1`, the Potency is reported as inconclusive: 16.4 µM [activator, partial curve, poor fit]. With `COc1ccc(Cn2cc(C(=O)c3ccc(Cl)cc3)c(=O)c3cc4c(cc32)OCO4)cc1` the Potency was inconclusive: 32.6 µM [falling, partial curve, poor fit]. With `O=c1[nH]c(O)c(/C=C2\C=Nc3ccccc32)[nH]1` the Potency was inconclusive: 7.31 µM [falling, partial curve, poor fit]. For `CCCc1cc(=O)oc2cc(OCC(=O)NCC(O)c3ccccc3)ccc12` (stereo unspecified), the Potency was inconclusive: 29.1 µM [falling, single point]. For `O=C1C(C2=NC(c3ccccn3)C3C(=O)N(c4ccc(OC(F)(F)F)cc4)C(=O)C23)=C(O)c2ccccc21` (stereo unspecified), the “activity change, negative = cytotoxicity” value was inactive: -0.481%. For `CCOC(=O)c1cc(S(=O)(=O)N2CCN(C3CCCCC3)CC2)cn1C`, the Potency was inconclusive: 18.4 µM [activator, partial curve, poor fit]. In the case of `CCOc1cccc(OCCCOc2cccc3cccnc23)c1`, the Potency is reported as inconclusive: 29.1 µM [falling, single point]. For `CSc1cnnc2ccccc12`, the Potency was inconclusive: 23.1 µM [falling, partial curve, poor fit]. In the case of `CN(Cc1ccccc1)C(=O)c1ccc(NC(=O)C2CCN(C(=O)OC(C)(C)C)CC2)cc1`, the “activity change, negative = cytotoxicity” value is reported as inactive: -5.01%. For `COc1cc(OC)c(NC(=O)c2c(C)nn(-c3ccc(C)cc3)c2-n2cccc2)cc1Cl`, the “activity change, negative = cytotoxicity” value was inactive: 1.34%. For `CCOC(=O)C1=C(N)Oc2cc(O)ccc2C1c1cccnc1` (stereo unspecified), the “activity change, negative = cytotoxicity” value was inactive: -10.8%. With `Cc1ccc(C(=O)c2sc(Nc3ccccc3F)c(S(=O)(=O)c3ccccc3)c2N)c(C)c1` the “activity change, negative = cytotoxicity” value was inactive: 6.06%. In the case of `Cc1cc(C)n(-c2n[nH]c(=O)c3ccccc23)n1`, the Potency is reported as inconclusive: 11.6 µM [activator, partial curve, poor fit]. For `CC(C)Oc1ccc(C2C(C(=O)c3ccco3)=C(O)C(=O)N2Cc2cccnc2)cc1` (stereo unspecified), the Potency was inconclusive: 18.4 µM [falling, single point]. For `Cc1cc(C)c(S(=O)(=O)Nc2cc(-c3cn4ccccc4n3)ccc2C)cc1C`, the Potency was inconclusive: 20.6 µM [falling, partial curve, poor fit]. In the case of `C=C(C(=O)c1ccccc1)C(CC(=O)c1ccccc1)c1ccccc1` (stereo unspecified), the Potency is reported as inconclusive: 18.4 µM [falling, partial curve, poor fit]. In the case of `S=C(NCCc1ccccc1)Nc1c(Cl)cccc1Cl`, the “activity change, negative = cytotoxicity” value is reported as inactive: 1.54%. For `COc1c(Cl)cc(C(=O)Nc2cccc(-c3nc4ccccc4[nH]3)c2)cc1Cl`, the Potency was inconclusive: 23.1 µM [falling, partial curve, poor fit]. For `O=C(Nc1cc2nn(-c3ccccc3)nc2cc1Cl)c1ccco1`, the “activity change, negative = cytotoxicity” value was inactive: 0.612%. For `COc1nc(N)nc(NC(=O)c2cccs2)c1N=O`, the “activity change, negative = cytotoxicity” value was inactive: -4.68%. In the case of `O=C(CCN1C(=O)/C(=C/c2ccccc2)SC1=S)NCCCN1CCOCC1`, the Potency is reported as inconclusive: 14.6 µM [falling, partial curve]. For `OCCC1CN(Cc2nc(-c3ccc(F)cc3)cs2)CCN1CCc1ccccc1` (stereo unspecified), the “activity change, negative = cytotoxicity” value was inactive: -13.6%. For `COC(=O)c1c(C)oc(C)c1S(=O)(=O)N1CCCCC1`, the “activity change, negative = cytotoxicity” value was inactive: 2.64%. For `O=[n+]1c2c(n([O-])c3cc(Br)ccc31)CCCC2`, the “activity change, negative = cytotoxicity” value was inactive: 0%. With `O=C(CCN1CCN(c2ccccc2)CC1)c1ccc(Br)cc1` the “activity change, negative = cytotoxicity” value was inactive: -7.43%. In the case of `COc1ccc(NS(=O)(=O)c2cc(NC(=O)C3CCCO3)ccc2N2CCCCC2)cc1` (stereo unspecified), the Potency is reported as inconclusive: 20.6 µM [falling, partial curve, poor fit]. For `Cc1ccc(C(C)C)c(OCCNC(=O)c2cncc(Br)c2)c1`, the Potency was inconclusive: 9.2 µM [falling, partial curve, poor fit]. For `CCC1CN(S(=O)(=O)c2cc(-c3cc(C)no3)ccc2OC)c2cc(C)ccc2O1` (stereo unspecified), the Potency was inconclusive: 14.6 µM [activator, partial curve, poor fit]. For `COc1ccc(C=NNc2ccc(S(=O)(=O)Nc3ccccc3C(=O)O)cc2[N+](=O)[O-])c(OC)c1`, the Potency was inconclusive: 18.4 µM [falling, partial curve, poor fit]. In the case of `CN(C(=O)c1cc2c(=O)oc3ccccc3c2s1)c1ccc(F)cc1`, the “activity change, negative = cytotoxicity” value is reported as inactive: 2.3%. In the case of `CCN(CC)C(=O)CSC1c2ccccc2C(=O)N1c1ccccc1` (stereo unspecified), the Potency is reported as inconclusive: 23.1 µM [falling, partial curve, poor fit]. For `COc1ccc(CCn2c(N)cc(=O)[nH]c2=S)cc1OC`, the Potency was inconclusive: 32.6 µM [activator, partial curve, poor fit]. In the case of `O=C(COC(=O)c1n[nH]c2ccccc12)NC(=O)NC12CC3CC(CC(C3)C1)C2`, the Potency is reported as inconclusive: 20.6 µM [falling, partial curve]. In the case of `Cc1cc(C)n(S(=O)(=O)/C=C/c2ccccc2)n1`, the Potency is reported as inconclusive: 18.4 µM [falling, single point]. For `Cc1ccc(CC(=O)NCC2CCCCC2)cc1`, the Potency was inconclusive: 8.2 µM [activator, partial curve, poor fit]. For `CSc1ccc(NC(=O)Nc2cccn(Cc3ccccc3)c2=O)cc1`, the Potency was inconclusive: 14.6 µM [falling, partial curve]. In the case of `CNC[C@@H](CC1CCCCC1)NC[C@H](CC(C)C)NCCc1cccc(C(F)(F)F)c1`, the Potency is reported as inconclusive: 29.1 µM [falling, single point]. For `O=C(NC(=S)NCc1cccnc1)c1cccc2ccccc12`, the Potency was inconclusive: 23.1 µM [activator, partial curve, poor fit]. For `CC(C)CNC(=O)COc1cccc(C(=O)NCc2ccccc2)c1`, the “activity change, negative = cytotoxicity” value was inactive: 1.57%. For `CCC(C)N1C(=O)CCC1C(=O)N1CCN(c2ccc(F)cc2)CC1` (stereo unspecified), the Potency was inconclusive: 20.6 µM [activator, partial curve, poor fit]. For `Cc1ccc(-c2cnc(NC(=O)CCC(=O)N3CCCCC3)n2C)cc1`, the Potency was inconclusive: 29.1 µM [activator, partial curve, poor fit]. With `CCS(=O)(=O)N1CCC(C(=O)NCCCN2CCC(Cc3ccccc3)CC2)CC1` the Potency was inconclusive: 20.6 µM [activator, partial curve, poor fit]. For `COc1ccc(CCn2c(=N)c(C(=O)NC3CCCC3)cc3c(=O)n4ccccc4nc32)cc1OC`, the Potency was inconclusive: 14.6 µM [falling, partial curve]. With `FC(F)(F)c1ccc(C2[C@H]3CN(Cc4cccnc4)[C@H](c4ccccc4)C34CC2(c2cccnc2)C4)cc1` (stereo partly specified) the Potency was inconclusive: 29.1 µM [falling, single point]. In the case of `O=C(c1cc(COc2ccc3ncccc3c2)on1)N1CCC(O)CC1`, the “activity change, negative = cytotoxicity” value is reported as inactive: -4.6%. For `CC1CCCN(S(=O)(=O)c2cc(C(=O)NCCc3ccc(S(N)(=O)=O)cc3)ccc2Cl)C1` (stereo unspecified), the Potency was inconclusive: 13 µM [falling, partial curve, poor fit]. With `COc1cccc(NC(=O)c2sc3nc(C)c(C(=O)Nc4ccc(C)cc4C)c(-c4sccc4C)c3c2N)c1` the Potency was inconclusive: 25.9 µM [activator, partial curve, poor fit].
